The chains behind the UniProt entries cited, without tags or fusion partners.
UniProt Q92830, whole entry, looked up: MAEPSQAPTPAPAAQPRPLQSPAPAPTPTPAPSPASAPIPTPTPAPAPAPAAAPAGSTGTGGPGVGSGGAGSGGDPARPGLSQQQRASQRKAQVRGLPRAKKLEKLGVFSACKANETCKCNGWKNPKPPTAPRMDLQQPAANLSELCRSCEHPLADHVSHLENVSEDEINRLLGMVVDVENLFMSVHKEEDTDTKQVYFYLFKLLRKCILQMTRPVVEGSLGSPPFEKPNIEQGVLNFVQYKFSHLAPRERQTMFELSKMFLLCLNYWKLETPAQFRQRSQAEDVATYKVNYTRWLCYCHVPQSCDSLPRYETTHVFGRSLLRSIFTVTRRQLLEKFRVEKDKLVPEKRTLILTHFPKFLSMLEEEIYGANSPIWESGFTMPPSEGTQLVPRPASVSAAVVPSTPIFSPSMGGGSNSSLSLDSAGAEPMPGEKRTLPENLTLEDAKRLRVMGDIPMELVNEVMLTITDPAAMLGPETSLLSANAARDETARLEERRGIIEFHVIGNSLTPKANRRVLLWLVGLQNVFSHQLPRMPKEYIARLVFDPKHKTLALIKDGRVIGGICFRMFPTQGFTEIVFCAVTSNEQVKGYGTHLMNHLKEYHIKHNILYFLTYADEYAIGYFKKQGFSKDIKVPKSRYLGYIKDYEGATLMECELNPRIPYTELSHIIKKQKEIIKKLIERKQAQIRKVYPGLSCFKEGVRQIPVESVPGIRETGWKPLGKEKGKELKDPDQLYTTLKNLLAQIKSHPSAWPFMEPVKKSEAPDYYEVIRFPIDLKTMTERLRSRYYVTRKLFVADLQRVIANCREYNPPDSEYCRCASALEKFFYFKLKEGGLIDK

About 820 (0.21%) of roughly 390,000 compounds were called active. The shares of active, inactive and inconclusive entries below differ from those in the screen. The call rests on the fitted dose curve; in most records, active means well fitted inhibition curve with a large enough effect; inconclusive means small, poorly fitted or top-dose-only effect, or another doubt; inactive means no such curve, though single readings can be large or run the other way. A potency beside an inconclusive call is a rough fit, not a confirmed value.
These molecules were tested against Histone acetyltransferase KAT2A (Homo sapiens) (UniProt Q92830) (assay: qHTS Assay for Inhibitors of GCN5L2). Settings: GCN5L2 HAT assay, ThioGlo1 CoA-SH fluorescence; activity change, negative = inhibition: at 58.9 µM (top of the series) unless noted.
In short: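 Enzyme at 20nM final was mixed with library compounds for 15 min at room temperature. Peptide H3(1-25) at 75uM, acetyl-CoA at 70uM and ThioGlo1 at 50uM were then added. Plates were read immediately and after 20 min (Ex340nm/Em540nm).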
For `COc1cc2c(cc1OC)CN(c1nc(-c3cccnc3)nc3ccccc13)CC2`, the “activity change, negative = inhibition” value was inactive: -8.06%.
In the case of `CCOc1ccc(NC(=O)Cn2sc3nc(C)cc(C)c3c2=O)cc1`, the Potency is reported as inconclusive: 15.8 µM [inhibitor, partial curve].
`COc1ccc(S(=O)(=O)Nc2ccc3c(c2)OCO3)cc1Cl` was tested, and the Potency was inconclusive: 5.01 µM [inhibitor, full curve, poor fit].
With `Cn1c(=O)c2c(nc(SCC(=O)NCc3ccc4c(c3)OCO4)n2Cc2ccc(F)cc2)n(C)c1=O` the Potency was inconclusive: 39.8 µM [inhibitor, single point].
In the case of `COc1ccc([C@H]2CC(=O)C=C(c3ccc(OC)c(OC)c3)C2)cc1`, the “activity change, negative = inhibition” value is reported as inactive: -24.4%.
For `Cc1ccc(NC(=O)CSCC(=O)Nc2ccccc2N2CCCC2)cc1`, the Potency was inconclusive: 8.91 µM [inhibitor, single point].
With `COc1ccc(C2=NC(=O)/C(=C\c3cc(OC)c(OC)c(OC)c3)O2)cc1` the Potency was inconclusive: 6.31 µM [inhibitor, partial curve, poor fit].
`Oc1ccccc1/C=N/NC(=S)NCCc1ccccc1` was tested, and the Potency was inconclusive: 39.8 µM [inhibitor, single point].
In the case of `CCCc1cc(=S)n2c([nH]c3ccccc32)c1C#N`, the Potency is reported as active: 22.4 µM.
`COc1ccccc1N1CCN(C(=O)c2c(-c3c(F)cccc3Cl)noc2C)CC1` was tested, and the Potency was inconclusive: 28.2 µM [inhibitor, single point].
In the case of `Clc1ccc(CNC2CCN(Cc3ccccc3)CC2)cc1`, the Potency is reported as inconclusive: 10 µM [inhibitor, partial curve, poor fit].
In the case of `CCCCN1C2=C(C(=O)CCC2)C(c2ccc(Cl)c(Cl)c2)C2=C1c1ccccc1C2=O` (stereo not given), the Potency is reported as inconclusive: 28.2 µM [inhibitor, single point].
With `CN(C(=O)CN1C(=O)c2cccc(N)c2C1=O)C1CCCCC1` the Potency was inconclusive: 39.8 µM [inhibitor, single point].
With `C=CCNCCCCOc1c(Cl)cc(C)cc1Br` the Potency was inconclusive: 6.31 µM [inhibitor, single point].
In the case of `CCOc1ccc(NC(=O)CSc2nncn2C)cc1`, the Potency is reported as inconclusive: 1 µM [inhibitor, single point].
With `Cc1ccc(C)c(CSc2nnc(-c3cccs3)n2Cc2ccco2)c1` the Potency was inconclusive: 0.794 µM [inhibitor, single point].
With `COc1ccc(/C=C(/NC(C)=O)C(=O)O)cc1` the Potency was inconclusive: 0.562 µM [inhibitor, single point].
With `CC(C)(C)c1cc(OC(=O)c2ccccc2F)ccc1O` the Potency was inconclusive: 5.62 µM [inhibitor, full curve, poor fit].
For `COCCNC(=O)c1cc(-c2ccc(OC)c(OC)c2)on1`, the Potency was inconclusive: 0.708 µM [inhibitor, single point].
With `Cc1cc(C)cc(NC(=S)Nc2cccc3cnccc23)c1` the “activity change, negative = inhibition” value was inactive: -3.43%.
In the case of `CC(=O)c1ccc(Oc2ncnc3sccc23)cc1`, the Potency is reported as inconclusive: 0.794 µM [inhibitor, single point].
With `Cc1ccc(-c2noc(-c3nnn(CC(=O)Nc4cccc(C(F)(F)F)c4)c3N)n2)cc1` the Potency was inconclusive: 17.8 µM [inhibitor, partial curve].
For `CC(C)c1cc2c(c(O)c1O)[C@@]13CCCC(C)(C)C1CC2OC3=O` (stereo not given in full), the Potency was inconclusive: 39.8 µM [inhibitor, single point].
For `c1ccc(-c2cn3nc4c(nc3n2)CCCC4)cc1`, the activity change, negative = inhibition was inconclusive: -30.8% [inhibitor].
With `COc1ccc(CC(=O)N2CCCC(C)C2)cc1` (stereo not given) the Potency was inconclusive: 39.8 µM [inhibitor, single point].
With `COc1ccc(NC(=O)c2ccc3nc(-c4ccccc4)c(-c4ccccc4)nc3c2)c(OC)c1` the Potency was inconclusive: 8.91 µM [inhibitor, single point].
`CN(C)c1ccc(-c2cncnc2-n2ccnc2)cc1` was tested, and the Potency was inconclusive: 35.5 µM [inhibitor, single point].
For `Cc1ccc(C(=O)O/N=C(\N)Cc2cccs2)c(Cl)c1`, the Potency was inconclusive: 6.31 µM [inhibitor, full curve].
For `CC(C)c1ccc(NC(=S)NNC(=O)C2CC2)cc1`, the Potency was inconclusive: 44.7 µM [inhibitor, single point].
In the case of `CC1CCN(C2CCN(S(=O)(=O)c3ccc(F)cc3)CC2)CC1`, the Potency is reported as inconclusive: 14.1 µM [inhibitor, partial curve].
With `Cc1ccc(O)c(NC(=O)CCSc2nc(-c3ccco3)cc(C(F)(F)F)n2)c1` the “activity change, negative = inhibition” value was inactive: -6.1%.
With `COc1ccccc1CNC(=O)/C=C/c1ccc(Br)o1` the Potency was inconclusive: 10 µM [inhibitor, partial curve].
In the case of `CCOC(=O)c1c(C)n(S(=O)(=O)c2ccc(C)cc2)c2ccc(NS(=O)(=O)c3ccc(C)cc3)cc12`, the “activity change, negative = inhibition” value is reported as inactive: -16.8%.
With `O=C(Nc1nc2ccccc2[nH]1)c1ccccc1F` the Potency was inconclusive: 39.8 µM [inhibitor, single point].
For `COc1ccccc1CCCNC(=O)C1CCC(=O)N(CCN2CCOCC2)C1` (stereo not given), the Potency was inconclusive: 31.6 µM [inhibitor, single point].
`COc1cc(/C=C/c2nc3cc(Cl)ccc3c(=O)n2-c2ccc(C)cc2C)cc(OC)c1OC` was tested, and the “activity change, negative = inhibition” value was inactive: 0.541%.
In the case of `COc1ccc(CCC(=O)NNC(=O)c2ccc(OC)cc2)cc1`, the “activity change, negative = inhibition” value is reported as inactive: -3.94%.
`CCCCC(CC)C(=O)Nc1ccc(Nc2ccccc2)cc1` (stereo not given) was tested, and the “activity change, negative = inhibition” value was inactive: -11.3%.
With `CCOC(=O)c1c(NC(=O)c2ccc(N3C(=O)[C@@H]4[C@H](C3=O)[C@H]3C=C[C@@H]4C3)cc2)sc2c1CCCC2` the Potency was inconclusive: 25.1 µM [inhibitor, single point].
With `Cc1ccc(-c2nc3c(c(=O)[nH]c(=O)n3Cc3ccccc3)n2C)o1` the Potency was inconclusive: 20 µM [inhibitor, partial curve].
With `C=CCn1c(=O)c(C(=O)NCc2ccccc2Cl)c(O)c2ccccc21` the Potency was inconclusive: 8.91 µM [inhibitor, full curve, poor fit].
For `C=CCn1c(O)c2ccc(C(=O)N=NC(=O)COc3ccc(OC)cc3)cc2c1O`, the Potency was inconclusive: 0.891 µM [inhibitor, full curve, poor fit].
For `CC(C)Oc1ccc(C(=O)NC2CCCCC2)cc1`, the “activity change, negative = inhibition” value was inactive: -2.44%.
In the case of `CCOc1cc(C(F)(F)F)cnc1/C(N)=N/O`, the “activity change, negative = inhibition” value is reported as inactive: -7.58%.
`CC1=NN(C(=O)c2cccc(Cn3nc(C)c([N+](=O)[O-])c3C)c2)C(O)(C(F)(F)F)C1` (stereo not given) was tested, and the “activity change, negative = inhibition” value was inactive: -4.94%.
In the case of `COc1ccc(-n2c(SCC(=O)Nc3ccc(Cl)cc3)nc(O)c(Cc3ccccc3)c2=O)cc1`, the Potency is reported as inconclusive: 4.47 µM [inhibitor, single point].
For `CCCn1[nH]cc(SC)c(=O)c1=O`, the “activity change, negative = inhibition” value was inactive: -3.55%.
With `CCCC1=[N+](CC)CCn2c(C)ccc21` the “activity change, negative = inhibition” value was inactive: -12.1%.
In the case of `COc1cccc(-n2c(SCC(=O)NCCC3=CCCCC3)nc3n[nH]c(C)c3c2=N)c1`, the “activity change, negative = inhibition” value is reported as inactive: 3.39%.
In the case of `Cc1cc(C(=O)NNC(=O)CCCOc2ccccc2)c(C)o1`, the Potency is reported as inconclusive: 0.562 µM [inhibitor, single point].
For `Cc1cc(C)c2nc(NNC(=O)c3ccc(S(=O)(=O)N4CCc5ccccc5C4)cc3)sc2c1`, the “activity change, negative = inhibition” value was inactive: -13.4%.
With `O=C1S/C(=C\c2ccc(N3CCOCC3)o2)C(=O)N1Cc1c(F)cccc1Cl` the Potency was inconclusive: 28.2 µM [inhibitor, partial curve].
For `CCOC(=O)C1(CC2CC2)CCN(Cc2ccc(OC)cc2F)CC1`, the Potency was inconclusive: 0.501 µM [inhibitor, full curve, poor fit].
`CCN=C1SC(C(=O)Nc2cc(Cl)cc(Cl)c2)CC(=O)N1CC` (stereo not given) was tested, and the Potency was inconclusive: 8.91 µM [inhibitor, single point].
`Cc1cccc(-n2ncc(C(=O)Nc3ccc4c(c3)OCO4)c2C2CCN(C(=O)OC(C)(C)C)CC2)c1` was tested, and the Potency was inconclusive: 28.2 µM [inhibitor, single point].
For `CN(C)c1ccc(NC(=O)CSC2=Nc3ccccc3C3=NC(CC(=O)NCc4ccc5c(c4)OCO5)C(=O)N23)cc1` (stereo not given), the Potency was inconclusive: 39.8 µM [inhibitor, single point].
For `Cc1cc2oc(C(=O)NCc3ccccc3)cc(=O)c2cc1C`, the Potency was inconclusive: 1.41 µM [inhibitor, partial curve].
`NS(=O)(=O)c1cccc(NC(=O)c2cncc(Br)c2)c1` was tested, and the Potency was inconclusive: 3.98 µM [inhibitor, partial curve].
For `COc1ccc(C2C3=C(CC(C)(C)CC3=O)N(C)C3=C2C(=O)CC(C)(C)C3)cc1`, the “activity change, negative = inhibition” value was inactive: -13.9%.
`COc1ccc(NC(=O)CN2CCN(Cc3ccc4c(c3)OCO4)CC2)cc1OC` was tested, and the “activity change, negative = inhibition” value was inactive: 3.53%.
In the case of `COc1ccc(OC)c(C2CC(=O)N3CN(c4ccccc4)CSC3=C2C#N)c1` (stereo not given), the Potency is reported as active: 28.2 µM.
With `CN1CCN(c2ccc(C(F)(F)F)cc2NC(=O)c2ccco2)CC1` the Potency was inconclusive: 39.8 µM [inhibitor, single point].
In the case of `COc1ccc(N2CCN(C3CCCN(Cc4ccccc4OCCO)C3)CC2)cc1` (stereo not given), the Potency is reported as inconclusive: 3.55 µM [inhibitor, partial curve].
`COc1ccc(NC(=O)C(=O)NNC(=O)C(C)Oc2ccc(Cl)cc2Cl)cc1` (stereo not given) was tested, and the “activity change, negative = inhibition” value was inactive: -12.5%.
With `CC(=O)c1cccc(NC(=O)N2CCCC2C(=O)Nc2ccc3c(c2)OCO3)c1` (stereo not given) the “activity change, negative = inhibition” value was inactive: 14.3%.
In the case of `Cc1ccc(/C=C/C(=O)NC2CCCCCCC2)o1`, the Potency is reported as inconclusive: 39.8 µM [inhibitor, single point].
For `CC(=O)/C(C)=N/O`, the Potency was inconclusive: 35.5 µM [inhibitor, single point].
In the case of `Oc1ccccc1-c1nc2c3ccccc3c3ccccc3c2[nH]1`, the Potency is reported as inconclusive: 0.1 µM [inhibitor, partial curve, poor fit].
In the case of `Cn1c(CC(=O)NNC(=O)c2cncc(Br)c2)nc2ccccc21`, the “activity change, negative = inhibition” value is reported as inactive: -13.8%.
With `Cc1cc(C(=O)NNC(=S)Nc2ccccc2)nn1C` the “activity change, negative = inhibition” value was inactive: -3.91%.
On the % scale 0 is the no-effect control and ±100 the full control effect; potency means the concentration at half of the fitted maximal effect.
